Hit rate of the full screen: of about 320,000 compounds, about 740 (0.23%) were called active. The shares of active, inactive and inconclusive entries below differ from those in the screen. Calls follow the shape of the dose curve; as a rule, active = well fitted activation curve with a large enough effect; inconclusive = small, poorly fitted or top-dose-only effect; inactive = no such curve, though single readings can be large or run the other way. Where the call is inconclusive, the potency comes from a doubtful curve fit.
Experiment: qHTS Assay for Small Molecule Inhibitors of Mitochondrial Division or Activators of Mitochondrial Fusion; also: nearly all actives have a fitted effect of over 45% in size; as to growth rescue (activation): % of control where 0% means no effect
Conditions: S. cerevisiae fusion-defective mutant growth rescue, CellTiterGlo 48 h; growth rescue (activation): at 46.1 µM (top of the series) unless noted
Procedure, shortened: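 S. cerevisiae fusion-defective temperature-sensitive mutants (e.g. fzo1-1, mgm1-5) grown 48 h at 37C in YPEG (ethanol/glycerol non-fermentable) medium with 23 nl compound per well; growth rescue read as CellTiterGlo luminescence.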
Potency is read from the fitted curve at half-maximal effect.

Structure (SMILES)	Potency	growth rescue (activation)
Cc1cccc2nc(=S)n(C(=O)c3ccco3)n12	inconclusive: 6.31 µM [activator, single point]	
CC(C)(C)OC(=O)N1CCC(c2cc(=O)n3[nH]cc(C(=O)NC4CCCC4)c3n2)CC1		inactive: -0.258%
O=S(=O)(NCC1CCN(c2ccc(S(=O)(=O)N3CCOCC3)cc2)CC1)c1ccc(F)cc1		inactive: -8.65%
COc1ccc(Nc2ccc(Cl)cc2)c(C(=O)O)c1	inconclusive: 12.6 µM [activator, partial curve]	
CSCCC(NC(=O)c1ccco1)C(=O)N1CCN(C(c2ccccc2)c2ccccc2)CC1 (stereo unspecified)	inconclusive: 17.8 µM [activator, single point]	
CC1=C(/C=C/C(C)=C/C=C/C(C)=C/C(=O)Nc2ccc(O)cc2)C(C)(C)CCC1	inconclusive: 20.6 µM [activator, single point]	
O=C(CCc1ccccc1)NNC(=O)c1ccc(Cl)cc1		inactive: -0.831%
Cc1cccc(C)c1OC1(c2ccccc2)OC(=O)c2ccccc21 (stereo unspecified)		inactive: 5.04%
CCCN(CC(=O)Nc1ccccc1OC)C(=O)c1cc(-c2cccs2)nn1-c1ccccc1	inconclusive: 15.8 µM [activator, partial curve]	
CCCOC(=O)c1ccc(Oc2c(-c3ccc(OCC)cc3O)n[nH]c2C)cc1	inconclusive: 12.6 µM [activator, partial curve]	
CC(Sc1nc2ccccc2s1)C(=O)NCc1ccc2c(c1)OCO2 (stereo unspecified)	inconclusive: 12.6 µM [activator, partial curve]	
Cc1cc(C)cc(N=c2c([N+](=O)[O-])nn(-c3cccc(Cl)c3)n2O)c1	inconclusive: 22.4 µM [activator, single point]	
CC(C)COc1ccc(C(=O)N(CC(=O)Nc2ccccc2C(F)(F)F)Cc2ccco2)cc1	inconclusive: 12.6 µM [activator, partial curve]	
O=C(CCC1CCN(C(=O)Cc2c(F)cccc2F)CC1)NC1CC1	inconclusive: 11.2 µM [activator, partial curve]	
COC(=O)COc1ccc(NS(=O)(=O)c2cccc([N+](=O)[O-])c2)cc1	inconclusive: 15.8 µM [activator, single point]	
O=C(O)CN1C(=O)CSC1=S		inactive: 9.17%
O=C(C(=O)N1CCN(c2ccc(F)cc2)CC1)c1c[nH]c2ccccc12		inactive: 4.7%
Cc1cccc2[nH]c3c(N4CC=C(c5ccc(F)cc5)CC4)ncnc3c12		inactive: 18.7%
NS(=O)(=O)c1ccc(CCNC(=O)C2CCCCN2S(=O)(=O)c2ccccc2)cc1 (stereo unspecified)		inactive: -3.44%
Cc1cc(NS(=O)(=O)c2ccc(NC(=O)CCCOc3ccccc3C)cc2)nc(C)n1		inactive: 2.26%
Cn1cccc1-c1cc(C(=O)N/N=C/c2ccccc2Cl)[nH]n1		inactive: -2.57%
COc1ccc(C2=NOC(CNC(N)=S)C2)cc1 (stereo unspecified)	inconclusive: 22.4 µM [activator, single point]	
Clc1ccccc1-c1nn2c(COc3ccccc3)nnc2s1	inconclusive: 35.5 µM [activator, single point]	

Gathered by group: the compounds so far with a Cl atom
Structure (SMILES)	Potency	growth rescue (activation)
COc1ccc(Nc2ccc(Cl)cc2)c(C(=O)O)c1	inconclusive: 12.6 µM [activator, partial curve]	
O=C(CCc1ccccc1)NNC(=O)c1ccc(Cl)cc1		inactive: -0.831%
Cc1cc(C)cc(N=c2c([N+](=O)[O-])nn(-c3cccc(Cl)c3)n2O)c1	inconclusive: 22.4 µM [activator, single point]	
Cn1cccc1-c1cc(C(=O)N/N=C/c2ccccc2Cl)[nH]n1		inactive: -2.57%
Clc1ccccc1-c1nn2c(COc3ccccc3)nnc2s1	inconclusive: 35.5 µM [activator, single point]	

Following part

Structure (SMILES)	Potency	growth rescue (activation)
Nc1c(Cl)ncnc1N/N=C/c1ccccn1	inconclusive: 35.5 µM [activator, single point]	
O=C(NCc1cccnc1)c1cc2nc(-c3cccs3)cc(C(F)(F)Cl)n2n1	inconclusive: 35.5 µM [activator, single point]	
COCCNS(=O)(=O)c1cc(C(=O)O)ccc1OC	inconclusive: 10 µM [activator, partial curve]	
O=C(COc1ccccc1Cl)N1N=C(c2cccs2)CC1c1ccco1 (stereo unspecified)	inconclusive: 12.6 µM [activator, partial curve]	
CC(Oc1ccccc1Cl)C(=O)Nc1ccc(S(=O)(=O)N2CCCC2)cc1 (stereo unspecified)	inconclusive: 28.2 µM [activator, single point]	
O=C(c1cc(Cl)ccc1Cl)N1CCc2ccccc21		inactive: 5.91%
CCC(=O)N(CCC(Cc1ccccc1)c1ccco1)Cc1ccco1 (stereo unspecified)	inconclusive: 12.6 µM [activator, partial curve]	
COCCn1cnnc1SCC(=O)Nc1sc2c(c1C#N)CCC2		inactive: -2.91%
COc1cccc(CNc2cc(CSc3ccc(Cl)cc3)nc(C)n2)c1	inconclusive: 14.1 µM [activator, partial curve]	
CC(C)N(C(=S)Nc1cccc(S(=O)(=O)N(C)C)c1)c1ccccc1		inactive: -0.518%
O=C(CC1Sc2ccccc2NC1=O)NCc1ccc(Cl)cc1 (stereo unspecified)	inconclusive: 17.8 µM [activator, single point]	
C[C@H](NC(=O)c1nc[nH]c1C(=O)N1CCc2ccccc2C1)C(=O)OC(C)(C)C	inconclusive: 35.5 µM [activator, single point]	
CCC1CCCCN1c1nc2c(C=O)c(C)nn2c2ccccc12 (stereo unspecified)	inconclusive: 17.8 µM [activator, partial curve]	
Fc1ccccc1/C=N/n1cnnc1		inactive: 1.23%
Cc1nc(NC(=O)CSc2nnc(-c3ccccc3)c(-c3ccccc3)n2)c(Cl)cc1Cl	inconclusive: 25.1 µM [activator, single point]	
Cc1ccc(C(C(=O)NC2CCCCC2)N(Cc2ccco2)C(=O)Cc2c[nH]c3ccccc23)o1 (stereo unspecified)	inconclusive: 17.8 µM [activator, single point]	
O=C(NCCC1=CCCCC1)c1ccc(Cl)c(S(=O)(=O)Nc2ccccc2)c1	inconclusive: 31.6 µM [activator, single point]	
CC(C)Cn1c(-c2cccs2)nc2nc3ccccc3nc21		inactive: 15.6%
COc1ccccc1N1CCN(S(=O)(=O)/C=C/c2ccccc2)CC1	inconclusive: 35.5 µM [activator, single point]	
Cc1cccc(NC2=NC(C)(C)N=C(N)N2)c1		inactive: -1.19%
Cc1ccc2cc(CN(Cc3ccccc3)Cc3nnnn3C3CCCC3)c(=O)[nH]c2c1	inconclusive: 10 µM [activator, single point]	
O=C1C=C(c2ccc3[nH]ccc3c2)C[C@@H](c2ccc(F)cc2)C1	inconclusive: 20 µM [activator, single point]	
O=C(/C=C/c1ccccc1)NC1CCCc2ccccc21 (stereo unspecified)	inconclusive: 22.4 µM [activator, single point]	

From PubChem BioAssay AID485298 (National Center for Advancing Translational Sciences (NCATS), 2010)
